{
  "source": "paper PMC11322666",
  "binders": {"B1": {"name": "UPF3B, endogenous (protein, UniProt Q9BZI7 1-483)", "chain": "MKEEKEHRPKEKRVTLLTPAGATGSGGGTSGDSSKGEDKQDRNKEKKEALSKVVIRRLPPTLTKEQLQEHLQPMPEHDYFEFFSNDTSLYPHMYARAYINFKNQEDIILFRDRFDGYVFLDNKGQEYPAIVEFAPFQKAAKKKTKKRDTKVGTIDDDPEYRKFLESYATDNEKMTSTPETLLEEIEAKNRELIAKKTTPLLSFLKNKQRMREEKREERRRREIERKRQREEERRKWKEEEKRKRKDIEKLKKIDRIPERDKLKDEPKIKVHRFLLQAVNQKNLLKKPEKGDEKELDKREKAKKLDKENLSDERASGQSCTLPKRSDSELKDEKPKRPEDESGRDYREREREYERDQERILRERERLKRQEEERRRQKERYEKEKTFKRKEEEMKKEKDTLRDKGKKAESTESIGSSEKTEKKEEVVKRDRIRNKDRPAMQLYQPGARSRNRLCPPDDSTKSGDSAAERKQESGISHRKEGGEE"}, "B2": {"name": "UPF3B-Vc155 (protein, UniProt Q9BZI7 1-483)", "chain": "B1 chain"}, "B3": {"name": "UPF3B-Myc (protein, UniProt Q9BZI7 1-483)", "chain": "B1 chain"}},
  "key": {"[1]": {"target": "IRE1α-Flag, wild type (human) (UniProt O75460)", "experiment": "co-IP; lysates of transfected HEK293T or U2OS cells (24 h) in NETN buffer (20 mM Tris-HCl pH 8.0, 100 mM NaCl, 1 mM EDTA, 0.5% NP-40), IP with anti-Flag (M2) magnetic beads or the indicated antibodies, western blot; Fig. 3G two-way"}, "[2]": {"target": "IRE1α^D123P, Flag tagged (human) (UniProt O75460)", "experiment": "co-IP; lysates of transfected HEK293T or U2OS cells (24 h) in NETN buffer (20 mM Tris-HCl pH 8.0, 100 mM NaCl, 1 mM EDTA, 0.5% NP-40), IP with anti-Flag (M2) magnetic beads or the indicated antibodies, western blot; Fig. 3G two-way"}, "[3]": {"target": "IRE1α^K-Flag (human) (UniProt O75460)", "experiment": "co-IP; lysates of transfected HEK293T or U2OS cells (24 h) in NETN buffer (20 mM Tris-HCl pH 8.0, 100 mM NaCl, 1 mM EDTA, 0.5% NP-40), IP with anti-Flag (M2) magnetic beads or the indicated antibodies, western blot; Fig. 3G two-way"}, "[4]": {"target": "IRE1α^K599A, Flag tagged (human) (UniProt O75460)", "experiment": "co-IP; lysates of transfected HEK293T or U2OS cells (24 h) in NETN buffer (20 mM Tris-HCl pH 8.0, 100 mM NaCl, 1 mM EDTA, 0.5% NP-40), IP with anti-Flag (M2) magnetic beads or the indicated antibodies, western blot; Fig. 3G two-way"}, "[5]": {"target": "inositol-requiring enzyme-1α (IRE1α), endogenous (human (endogenous in HEK293T and U2OS)) (UniProt O75460)", "experiment": "co-IP; endogenous proteins, lysates of HEK293T and U2OS cells, IP with the indicated antibodies (anti-IRE1α), IgG as negative control; also with RNase A pre-treatment of lysates, in shUPF1 and shUPF2 cells, after STF-083010 or Kira6 (10 or 50 μM, 6 h), BiP overexpression, siBiP, UPF3B …"}, "[6]": {"target": "IRE1α-Vn173 (human) (UniProt O75460)", "experiment": "split reporter; BiFC with Venus fragments VN173 and VC155 in living U2OS cells, 24 h after transfection, confocal microscopy"}, "[7]": {"target": "IRE1α^S724A-Vn173 (human) (UniProt O75460)", "experiment": "split reporter; BiFC with Venus fragments VN173 and VC155 in living U2OS cells, 24 h after transfection, confocal microscopy"}, "[8]": {"target": "IRE1α-Flag, wild type (human) (UniProt O75460)", "experiment": "co-IP; UPF3B-Myc (increasing amounts; pCMV as 0 μg control), IRE1α-Flag and IRE1α-HA overexpressed in HEK293T cells, IP with anti-Flag antibodies"}},
  "note": "These are yes or no findings as the source states them, for the method shown. Binding seen in cells or lysates may run through a third protein. Some results given as binding are weak or reduced against the parent protein; the word gives no strength. For some assays here: Sequences can lack the tags named with a protein.",
  "data": [
    {"binder": "B1", "values": [
      {"measurement": "binding", "setting": "[1]", "result": "binds"},
      {"measurement": "binding", "setting": "[2]", "result": "binds"},
      {"measurement": "binding", "setting": "[3]", "result": "binds"},
      {"measurement": "binding", "setting": "[4]", "result": "binds"},
      {"measurement": "binding", "setting": "[5]", "result": "binds"}
    ]},
    {"binder": "B2", "values": [
      {"measurement": "binding", "setting": "[6]", "result": "binds"},
      {"measurement": "binding", "setting": "[7]", "result": "binds"}
    ]},
    {"binder": "B3", "values": [
      {"measurement": "binding", "setting": "[8]", "result": "binds"}
    ]}
  ]
}
